The values that follow come from paper PMC3857177 (PLoS ONE, 2013).

Chains of the proteins cited; added tags and fusions are not shown. Lines headed by an entry give the natural chain unless they say otherwise; changes in a name come on top. A line that says so, or that is headed by a name, gives the form on record, which may keep a tag or linker. Residues count along the entry.
His6-tagged human Rock1 707–815 (Q13464, residues 707-815): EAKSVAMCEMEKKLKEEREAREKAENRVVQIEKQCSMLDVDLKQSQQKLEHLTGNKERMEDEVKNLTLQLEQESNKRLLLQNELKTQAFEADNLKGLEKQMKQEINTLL
human Rock1 707–946, 900ESEQLAR906 to alanine (Q13464, form named): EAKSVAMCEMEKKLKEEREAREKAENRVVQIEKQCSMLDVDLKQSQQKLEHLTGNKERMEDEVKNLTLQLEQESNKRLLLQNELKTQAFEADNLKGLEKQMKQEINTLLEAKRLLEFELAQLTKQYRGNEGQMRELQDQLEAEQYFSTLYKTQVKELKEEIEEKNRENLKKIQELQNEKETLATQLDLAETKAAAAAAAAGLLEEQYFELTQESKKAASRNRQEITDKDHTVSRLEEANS

Results are given in words; binding and its absence hold for the method and conditions named. Some results given as binding are weak or reduced against the parent protein; the word gives no strength. Where a sequence is shown, tags or fusion partners need not be part of it.

For experiment [1], the target named is T1, human Shrm2 SD2 domain (1427–1610), untagged (human) (UniProt Q13796).
T1 sequence: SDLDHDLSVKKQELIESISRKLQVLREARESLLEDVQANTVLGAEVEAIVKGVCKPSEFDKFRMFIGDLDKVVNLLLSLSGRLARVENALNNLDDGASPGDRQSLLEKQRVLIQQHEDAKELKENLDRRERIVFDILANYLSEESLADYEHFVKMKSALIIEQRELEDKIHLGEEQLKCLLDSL
As to the kind of experiment: native gel or EMSA; 10 µM Rock1 707–946 (wild type or mutant) mixed with 10 µM human Shrm2 SD2, 20 min room temperature; 12% native PAGE at 4°C, Coomassie; both purified. For orientation: In EMSA bound probe runs differently from free probe, usually more slowly.

For experiment [2], the target named is His6-tagged human Rock1 707–815 (human) (UniProt Q13464). As to the kind of experiment: pull-down; 25 µg purified His-tagged Rock1 fragment on nickel beads, 2x molar excess of untagged Shrm2 SD2, 10 min room temperature; 2% glycerol, 100 mM NaCl, 7 mM imidazole, 1 mM β-mercaptoethanol, 20 mM Tris pH 8.0; SDS-PAGE, Coomassie; both purified.

With “human Rock1 707–946, 900ESEQLAR906 to alanine (from UniProt Q13464 707-946) (domain or fragment)”, the binding result in experiment [1] is listed as “binds”.

B1: human Shrm2 SD2 domain (1427–1610), untagged (domain or fragment, UniProt Q13796 1427-1610, looked up)
chain: T1 sequence
notes: Shroom2 (Shrm2), human, Shrm Domain 2 (SD2), residues 1427-1610; Cloned into pET151/D-TOPO (His6 removable with TEV); called untagged in the pull-down; also called Shrm SD2; human Shroom2 SD2; source: E. coli BL21(DE3) Codon+(RILP), purified; not shown: His6, N-terminal, cleaved
In the case of B1, in experiment [2], the binding result is “no binding”.
